# According to article doi:10.1101/2021.12.08.471779:
# Protein sequences, listed by entry. Tags and fused reporters are not part of them. Lines headed by an entry give the natural chain unless they say otherwise; changes in a name come on top.
# UniProt P02929, whole entry, looked up, stated change not applied: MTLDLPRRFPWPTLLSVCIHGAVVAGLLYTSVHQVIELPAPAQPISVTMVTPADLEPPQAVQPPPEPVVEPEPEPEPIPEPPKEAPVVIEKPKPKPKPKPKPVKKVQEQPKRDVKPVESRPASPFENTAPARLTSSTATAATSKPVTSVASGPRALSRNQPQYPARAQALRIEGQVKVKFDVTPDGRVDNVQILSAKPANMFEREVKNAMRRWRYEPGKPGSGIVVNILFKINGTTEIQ
# Changes are numbered by the printed parent chain. These are yes or no findings as the source states them, for the method shown. Binding seen in cells or lysates may run through a third protein. Some results given as binding are weak or reduced against the parent protein; the word gives no strength.
# What was measured:
# Assay in all cases: cross-linking
# [1] = target: T1, FepA E152C (Escherichia coli K-12) (UniProt P05825)
# T1 sequence: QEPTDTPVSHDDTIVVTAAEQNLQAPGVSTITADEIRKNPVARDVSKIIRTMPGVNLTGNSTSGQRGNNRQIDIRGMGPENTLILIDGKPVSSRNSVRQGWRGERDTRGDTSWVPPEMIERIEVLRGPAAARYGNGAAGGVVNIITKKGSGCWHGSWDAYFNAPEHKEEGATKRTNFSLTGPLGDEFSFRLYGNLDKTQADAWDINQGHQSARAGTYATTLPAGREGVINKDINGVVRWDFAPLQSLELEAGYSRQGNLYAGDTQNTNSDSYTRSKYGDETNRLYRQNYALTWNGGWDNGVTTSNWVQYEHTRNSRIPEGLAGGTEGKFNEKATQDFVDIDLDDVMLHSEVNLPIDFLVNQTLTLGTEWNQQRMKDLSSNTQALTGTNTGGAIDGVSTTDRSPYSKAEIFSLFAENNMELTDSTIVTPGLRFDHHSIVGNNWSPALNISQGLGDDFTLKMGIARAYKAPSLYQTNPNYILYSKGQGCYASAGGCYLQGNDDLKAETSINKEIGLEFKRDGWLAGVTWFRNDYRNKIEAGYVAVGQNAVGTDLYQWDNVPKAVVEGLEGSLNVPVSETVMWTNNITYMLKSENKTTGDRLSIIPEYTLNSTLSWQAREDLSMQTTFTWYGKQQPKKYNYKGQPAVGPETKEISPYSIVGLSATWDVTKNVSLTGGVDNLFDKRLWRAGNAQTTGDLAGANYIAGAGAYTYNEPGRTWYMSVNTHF
# [2] = target: T2, FepA E576C (Escherichia coli K-12) (UniProt P05825)
# T2 sequence: T1 sequence with C152E, E576C
# [3] = target: T3, FepA T32C (Escherichia coli K-12) (UniProt P05825)
# T3 sequence: T1 sequence with T32C, C152E
binding [1],binding [2],binding [3],Substance
binds,,,TonB C18G H20A R204C (from UniProt P02929 1-239)
,no binding,binds,TonB C18G Q160C (from UniProt P02929 1-239)
no binding,no binding,no binding,TonB C18G A209C (from UniProt P02929 1-239)
no binding,no binding,no binding,TonB C18G V206C (from UniProt P02929 1-239)
binds weakly,,,TonB C18G N208C (from UniProt P02929 1-239)
binds,,binds,TonB C18G R204C (from UniProt P02929 1-239)
